Assay [1] deals with T1, GAGA factor (GAF) (Drosophila melanogaster (endogenous in S2)) (UniProt Q08605).
T1 sequence: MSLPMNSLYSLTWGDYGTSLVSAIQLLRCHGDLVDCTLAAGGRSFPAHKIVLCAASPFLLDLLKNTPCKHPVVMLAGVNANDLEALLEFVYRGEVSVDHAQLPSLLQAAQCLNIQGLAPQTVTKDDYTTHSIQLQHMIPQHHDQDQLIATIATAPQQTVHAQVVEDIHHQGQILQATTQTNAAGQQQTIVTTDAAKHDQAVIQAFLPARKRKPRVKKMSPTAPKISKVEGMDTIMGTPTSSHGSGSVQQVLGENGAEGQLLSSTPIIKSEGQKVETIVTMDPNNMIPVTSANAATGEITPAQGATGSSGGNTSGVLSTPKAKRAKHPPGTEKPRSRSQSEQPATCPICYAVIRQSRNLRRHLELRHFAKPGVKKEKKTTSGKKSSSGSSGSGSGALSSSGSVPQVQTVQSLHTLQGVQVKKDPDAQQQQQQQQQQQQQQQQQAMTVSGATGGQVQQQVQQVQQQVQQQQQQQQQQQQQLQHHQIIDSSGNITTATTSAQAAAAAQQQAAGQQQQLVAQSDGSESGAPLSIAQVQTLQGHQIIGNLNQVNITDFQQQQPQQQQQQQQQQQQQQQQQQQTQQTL
Briefly: co-IP; S2 cell lysate (50 mM Tris-HCl pH 7.5, 150 mM NaCl, 1 mM EDTA, 1% Triton X-100, 0.1% NP-40); anti-Nup107, anti-Elys or anti-GAF antibodies on Protein G Dynabeads, 90 min at 25 °C; Western blot; non-immune serum as control.

Sequences of proteins named here, by UniProt entry; tags and fusion partners are left off.
UniProt Q9VWE6: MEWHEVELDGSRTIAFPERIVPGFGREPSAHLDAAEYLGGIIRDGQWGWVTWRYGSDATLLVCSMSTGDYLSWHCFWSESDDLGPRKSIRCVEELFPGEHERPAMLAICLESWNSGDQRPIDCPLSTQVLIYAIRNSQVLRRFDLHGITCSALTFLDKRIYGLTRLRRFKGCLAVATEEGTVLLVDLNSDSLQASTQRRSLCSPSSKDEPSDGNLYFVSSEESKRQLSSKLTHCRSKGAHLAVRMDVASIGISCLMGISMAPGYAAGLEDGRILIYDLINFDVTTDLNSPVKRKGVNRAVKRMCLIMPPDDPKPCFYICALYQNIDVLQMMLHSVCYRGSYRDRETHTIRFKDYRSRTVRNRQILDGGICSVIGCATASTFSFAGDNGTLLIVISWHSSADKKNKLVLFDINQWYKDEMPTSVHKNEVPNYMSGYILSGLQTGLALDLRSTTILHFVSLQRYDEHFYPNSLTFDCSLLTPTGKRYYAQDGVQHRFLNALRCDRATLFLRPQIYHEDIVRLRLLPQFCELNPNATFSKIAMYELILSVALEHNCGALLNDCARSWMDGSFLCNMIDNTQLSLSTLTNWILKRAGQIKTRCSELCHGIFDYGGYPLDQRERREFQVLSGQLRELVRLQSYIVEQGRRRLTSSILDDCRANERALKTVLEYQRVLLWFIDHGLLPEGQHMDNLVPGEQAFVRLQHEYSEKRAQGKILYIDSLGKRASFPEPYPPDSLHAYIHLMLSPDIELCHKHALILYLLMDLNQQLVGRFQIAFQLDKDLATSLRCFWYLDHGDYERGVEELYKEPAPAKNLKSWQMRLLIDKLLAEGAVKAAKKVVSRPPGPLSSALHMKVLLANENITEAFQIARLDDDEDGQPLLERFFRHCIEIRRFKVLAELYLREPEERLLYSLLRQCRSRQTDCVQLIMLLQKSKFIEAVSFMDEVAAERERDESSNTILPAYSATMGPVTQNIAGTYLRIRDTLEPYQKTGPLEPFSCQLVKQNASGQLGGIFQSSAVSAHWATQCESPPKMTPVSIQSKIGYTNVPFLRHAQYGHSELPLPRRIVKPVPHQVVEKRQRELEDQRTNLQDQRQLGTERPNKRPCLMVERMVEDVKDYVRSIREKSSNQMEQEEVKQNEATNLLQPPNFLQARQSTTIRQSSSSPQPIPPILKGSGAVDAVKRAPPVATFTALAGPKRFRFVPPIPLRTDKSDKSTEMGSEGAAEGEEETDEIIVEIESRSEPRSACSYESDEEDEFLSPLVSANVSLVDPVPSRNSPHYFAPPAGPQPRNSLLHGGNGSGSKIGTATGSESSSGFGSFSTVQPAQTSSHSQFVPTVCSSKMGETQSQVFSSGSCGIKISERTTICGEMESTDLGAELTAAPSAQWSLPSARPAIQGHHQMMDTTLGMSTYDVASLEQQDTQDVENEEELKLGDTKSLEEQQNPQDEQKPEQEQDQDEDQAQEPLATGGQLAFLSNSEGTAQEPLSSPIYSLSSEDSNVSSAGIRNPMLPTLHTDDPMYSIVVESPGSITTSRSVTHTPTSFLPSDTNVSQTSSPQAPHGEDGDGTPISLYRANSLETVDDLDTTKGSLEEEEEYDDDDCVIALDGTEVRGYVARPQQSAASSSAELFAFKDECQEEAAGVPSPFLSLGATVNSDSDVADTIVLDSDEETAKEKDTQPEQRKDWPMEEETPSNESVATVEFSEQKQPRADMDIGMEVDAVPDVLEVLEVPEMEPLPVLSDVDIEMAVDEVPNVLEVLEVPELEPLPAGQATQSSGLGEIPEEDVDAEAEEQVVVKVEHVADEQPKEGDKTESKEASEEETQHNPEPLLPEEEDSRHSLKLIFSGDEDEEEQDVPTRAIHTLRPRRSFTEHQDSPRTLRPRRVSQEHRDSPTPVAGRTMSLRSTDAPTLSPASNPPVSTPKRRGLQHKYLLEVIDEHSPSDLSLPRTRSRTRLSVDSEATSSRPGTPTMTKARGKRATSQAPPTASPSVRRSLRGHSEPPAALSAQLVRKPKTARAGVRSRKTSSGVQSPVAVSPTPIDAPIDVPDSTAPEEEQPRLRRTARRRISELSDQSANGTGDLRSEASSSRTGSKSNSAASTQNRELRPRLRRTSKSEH

The target of assay [2] is T2, Nup107 (Drosophila melanogaster (endogenous in S2)) (UniProt Q9V466).
T2 sequence: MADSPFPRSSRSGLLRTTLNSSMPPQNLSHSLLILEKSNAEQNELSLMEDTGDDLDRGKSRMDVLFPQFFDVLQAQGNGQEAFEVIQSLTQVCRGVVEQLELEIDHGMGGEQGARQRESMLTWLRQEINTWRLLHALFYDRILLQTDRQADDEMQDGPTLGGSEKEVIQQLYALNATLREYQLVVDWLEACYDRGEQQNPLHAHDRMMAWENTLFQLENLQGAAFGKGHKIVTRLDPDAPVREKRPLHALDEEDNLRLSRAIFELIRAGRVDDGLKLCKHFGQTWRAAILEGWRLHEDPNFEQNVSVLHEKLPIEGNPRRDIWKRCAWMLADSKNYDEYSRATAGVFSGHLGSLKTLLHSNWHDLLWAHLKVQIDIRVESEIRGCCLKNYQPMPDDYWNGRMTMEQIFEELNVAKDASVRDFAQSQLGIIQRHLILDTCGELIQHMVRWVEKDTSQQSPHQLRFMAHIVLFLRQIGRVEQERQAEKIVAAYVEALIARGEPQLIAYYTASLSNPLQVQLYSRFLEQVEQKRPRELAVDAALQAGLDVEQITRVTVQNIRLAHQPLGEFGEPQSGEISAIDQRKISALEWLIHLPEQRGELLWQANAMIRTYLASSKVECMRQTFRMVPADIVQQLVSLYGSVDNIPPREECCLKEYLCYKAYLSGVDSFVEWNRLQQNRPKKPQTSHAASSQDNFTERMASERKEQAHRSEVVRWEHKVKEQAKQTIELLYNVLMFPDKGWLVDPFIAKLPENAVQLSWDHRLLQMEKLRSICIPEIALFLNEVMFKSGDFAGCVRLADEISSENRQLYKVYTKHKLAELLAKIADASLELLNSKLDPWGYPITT
Described as above.

These are yes or no findings as the source states them, for the method shown. Binding seen in cells or lysates may run through a third protein. Some entries that bind do so weakly or less than the wild type.

Regarding “Nucleoporin Elys (from UniProt Q9VWE6 1-2111)”, the binding entry is “no binding” in assay [1] and “binds” in assay [2].

The values above are taken from PMC11217421.
